{
  "source": "paper PMC11161644",
  "about": "“An effective and rapidly degradable disinfectant from disinfection byproducts” (Nature Communications, 2024)",
  "system": "P. dumerilii embryos",
  "assay": "Developmental toxicity assay with P. dumerilii embryos, dilution factor of in-use concentration (EC50,DF), also after degradation in darkness",
  "type": "in vivo, Platynereis dumerilii",
  "conditions": "2,6-DCQ",
  "text": "The DBP doses for 3-log E. coli reduction (pH 7.2) were set as the in-use concentrations, which were serially diluted and added to the P. dumerilii embryos at 12-h postfertilization. A dilution factor was defined as the ratio of the in-use concentration to the exposure concentration. Each exposure set contained a control sample (i.e., the embryos at 12-h postfertilization developed in seawater without the addition of DBPs). By 24-h postfertilization, normally developed embryos should have reached the first larval stage. An inverted stereomicroscope (×40 magnification) was used to observe the larvae. The normal development percentage was calculated as the ratio of normally developed embryos to total embryos. By plotting the curve of the normal development percentage versus the dilution factor, the EC50,DF value (i.e., the dilution factor corresponding to 50% of the normal development percentage of the control sample) was obtained using SigmaPlot 12. The developmental toxicity test was conducted in duplicate.",
  "note": "Several values for one entry are separate records, joined by “and”; a condition that tells them apart may be missing. Equal entries are not always repeated. The source gives many values for each of these; only a part stands here.",
  "data": [
    {"smiles": "O=C1C=C(Cl)C(=O)C(Cl)=C1", "note": "[2,6-DCQ, 2,6-dichlorobenzoquinone]", "values": [
      {"measurement": "Normal development", "setting": "degradation 1 h, dilution factor 21.3333", "result": "85% and 82.8358%"},
      {"measurement": "Normal development", "setting": "degradation 1 h, dilution factor 32", "result": "86.087% and 85%"},
      {"measurement": "Normal development", "setting": "degradation 2 h, dilution factor 21.3333", "result": "84.4901% and 85.7801%"},
      {"measurement": "Normal development", "setting": "degradation 4 h, dilution factor 6.4", "result": "84.9579% and 81.2687%"},
      {"measurement": "Normal development", "setting": "degradation 6 h, dilution factor 2.1333", "result": "82.0063% and 83.8851%"},
      {"measurement": "Normal development", "setting": "degradation 24 h, dilution factor 1.28", "result": "76.9034% and 75.824%"},
      {"measurement": "Normal development", "setting": "degradation 48 h, dilution factor 0.512", "result": "85.2896% and 79.5958%"},
      {"measurement": "Normal development", "setting": "degradation 48 h, dilution factor 0.64", "result": "86.9401% and 87.7077%"}
    ]}
  ]
}
